These are yes or no findings as the source states them, for the method shown. Binding seen in cells or lysates may run through a third protein. Some binding calls cover weakened binding; strength is not graded here.

By UniProt entry, the sequences of proteins in these tests, tags left out.
UniProt O95071: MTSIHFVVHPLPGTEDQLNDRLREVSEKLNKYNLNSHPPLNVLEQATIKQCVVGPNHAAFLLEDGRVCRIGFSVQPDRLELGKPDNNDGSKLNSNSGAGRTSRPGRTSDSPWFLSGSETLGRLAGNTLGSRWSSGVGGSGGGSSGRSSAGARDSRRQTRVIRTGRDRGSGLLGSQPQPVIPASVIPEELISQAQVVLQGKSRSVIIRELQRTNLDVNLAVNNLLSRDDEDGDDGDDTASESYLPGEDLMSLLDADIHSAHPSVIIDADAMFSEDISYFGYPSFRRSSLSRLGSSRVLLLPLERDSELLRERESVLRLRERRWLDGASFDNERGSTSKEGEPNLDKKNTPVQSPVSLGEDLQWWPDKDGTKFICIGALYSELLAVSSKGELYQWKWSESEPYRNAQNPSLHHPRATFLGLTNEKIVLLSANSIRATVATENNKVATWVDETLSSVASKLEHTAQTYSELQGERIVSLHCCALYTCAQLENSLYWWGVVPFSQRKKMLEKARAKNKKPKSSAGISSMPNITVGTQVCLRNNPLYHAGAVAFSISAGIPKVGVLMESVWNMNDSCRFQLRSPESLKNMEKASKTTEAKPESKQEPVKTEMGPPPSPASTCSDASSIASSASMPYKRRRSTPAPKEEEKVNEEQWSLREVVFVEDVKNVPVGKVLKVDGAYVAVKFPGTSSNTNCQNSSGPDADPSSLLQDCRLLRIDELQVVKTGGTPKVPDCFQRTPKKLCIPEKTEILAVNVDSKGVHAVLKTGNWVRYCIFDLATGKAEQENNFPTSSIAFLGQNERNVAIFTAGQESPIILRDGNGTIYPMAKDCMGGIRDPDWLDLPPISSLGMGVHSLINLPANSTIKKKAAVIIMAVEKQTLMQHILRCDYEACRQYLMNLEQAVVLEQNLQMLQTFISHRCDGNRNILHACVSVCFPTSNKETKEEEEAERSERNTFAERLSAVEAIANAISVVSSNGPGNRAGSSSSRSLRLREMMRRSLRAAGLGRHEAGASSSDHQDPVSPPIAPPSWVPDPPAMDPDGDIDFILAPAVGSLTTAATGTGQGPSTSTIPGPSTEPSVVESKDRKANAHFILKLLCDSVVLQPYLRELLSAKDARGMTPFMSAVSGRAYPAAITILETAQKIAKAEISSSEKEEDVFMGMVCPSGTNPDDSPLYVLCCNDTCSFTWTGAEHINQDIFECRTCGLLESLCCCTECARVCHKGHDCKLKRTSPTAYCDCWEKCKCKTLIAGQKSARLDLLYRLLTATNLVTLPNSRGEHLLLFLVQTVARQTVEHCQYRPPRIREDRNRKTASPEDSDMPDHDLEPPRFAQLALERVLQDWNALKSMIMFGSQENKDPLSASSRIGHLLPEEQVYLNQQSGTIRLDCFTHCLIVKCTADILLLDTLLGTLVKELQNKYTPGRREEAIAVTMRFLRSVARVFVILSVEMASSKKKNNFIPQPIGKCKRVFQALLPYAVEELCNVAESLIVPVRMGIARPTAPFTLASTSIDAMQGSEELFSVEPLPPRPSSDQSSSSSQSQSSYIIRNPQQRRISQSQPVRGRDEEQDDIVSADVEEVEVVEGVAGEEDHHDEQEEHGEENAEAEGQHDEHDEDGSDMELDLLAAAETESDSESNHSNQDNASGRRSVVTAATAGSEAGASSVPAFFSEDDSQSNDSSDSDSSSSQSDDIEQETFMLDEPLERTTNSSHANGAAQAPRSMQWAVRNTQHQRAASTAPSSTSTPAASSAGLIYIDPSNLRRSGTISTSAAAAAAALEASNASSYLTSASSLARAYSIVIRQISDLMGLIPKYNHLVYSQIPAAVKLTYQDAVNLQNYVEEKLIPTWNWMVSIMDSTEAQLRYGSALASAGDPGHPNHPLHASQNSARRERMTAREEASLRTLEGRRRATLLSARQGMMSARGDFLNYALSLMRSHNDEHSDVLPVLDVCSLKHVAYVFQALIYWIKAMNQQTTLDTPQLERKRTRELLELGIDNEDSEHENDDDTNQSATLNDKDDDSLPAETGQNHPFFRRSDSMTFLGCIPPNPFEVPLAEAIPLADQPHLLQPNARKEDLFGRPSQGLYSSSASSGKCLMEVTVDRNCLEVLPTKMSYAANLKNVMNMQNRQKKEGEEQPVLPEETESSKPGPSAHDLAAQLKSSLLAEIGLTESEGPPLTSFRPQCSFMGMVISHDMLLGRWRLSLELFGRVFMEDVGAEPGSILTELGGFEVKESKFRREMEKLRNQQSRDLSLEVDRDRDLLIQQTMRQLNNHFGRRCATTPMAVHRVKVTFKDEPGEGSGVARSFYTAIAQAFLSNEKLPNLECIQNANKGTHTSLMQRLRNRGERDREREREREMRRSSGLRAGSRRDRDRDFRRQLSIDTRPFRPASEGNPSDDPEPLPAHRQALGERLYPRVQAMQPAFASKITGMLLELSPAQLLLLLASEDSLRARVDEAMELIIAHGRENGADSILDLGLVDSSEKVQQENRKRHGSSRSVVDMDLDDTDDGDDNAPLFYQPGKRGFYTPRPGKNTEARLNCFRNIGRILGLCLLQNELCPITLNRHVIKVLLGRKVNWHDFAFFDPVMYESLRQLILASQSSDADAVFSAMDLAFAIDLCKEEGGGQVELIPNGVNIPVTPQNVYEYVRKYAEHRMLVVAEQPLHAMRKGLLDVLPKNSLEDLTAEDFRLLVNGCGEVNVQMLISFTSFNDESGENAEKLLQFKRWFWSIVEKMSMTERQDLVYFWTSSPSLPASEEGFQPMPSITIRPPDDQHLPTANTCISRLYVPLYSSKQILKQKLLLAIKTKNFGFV
UniProt Q92616: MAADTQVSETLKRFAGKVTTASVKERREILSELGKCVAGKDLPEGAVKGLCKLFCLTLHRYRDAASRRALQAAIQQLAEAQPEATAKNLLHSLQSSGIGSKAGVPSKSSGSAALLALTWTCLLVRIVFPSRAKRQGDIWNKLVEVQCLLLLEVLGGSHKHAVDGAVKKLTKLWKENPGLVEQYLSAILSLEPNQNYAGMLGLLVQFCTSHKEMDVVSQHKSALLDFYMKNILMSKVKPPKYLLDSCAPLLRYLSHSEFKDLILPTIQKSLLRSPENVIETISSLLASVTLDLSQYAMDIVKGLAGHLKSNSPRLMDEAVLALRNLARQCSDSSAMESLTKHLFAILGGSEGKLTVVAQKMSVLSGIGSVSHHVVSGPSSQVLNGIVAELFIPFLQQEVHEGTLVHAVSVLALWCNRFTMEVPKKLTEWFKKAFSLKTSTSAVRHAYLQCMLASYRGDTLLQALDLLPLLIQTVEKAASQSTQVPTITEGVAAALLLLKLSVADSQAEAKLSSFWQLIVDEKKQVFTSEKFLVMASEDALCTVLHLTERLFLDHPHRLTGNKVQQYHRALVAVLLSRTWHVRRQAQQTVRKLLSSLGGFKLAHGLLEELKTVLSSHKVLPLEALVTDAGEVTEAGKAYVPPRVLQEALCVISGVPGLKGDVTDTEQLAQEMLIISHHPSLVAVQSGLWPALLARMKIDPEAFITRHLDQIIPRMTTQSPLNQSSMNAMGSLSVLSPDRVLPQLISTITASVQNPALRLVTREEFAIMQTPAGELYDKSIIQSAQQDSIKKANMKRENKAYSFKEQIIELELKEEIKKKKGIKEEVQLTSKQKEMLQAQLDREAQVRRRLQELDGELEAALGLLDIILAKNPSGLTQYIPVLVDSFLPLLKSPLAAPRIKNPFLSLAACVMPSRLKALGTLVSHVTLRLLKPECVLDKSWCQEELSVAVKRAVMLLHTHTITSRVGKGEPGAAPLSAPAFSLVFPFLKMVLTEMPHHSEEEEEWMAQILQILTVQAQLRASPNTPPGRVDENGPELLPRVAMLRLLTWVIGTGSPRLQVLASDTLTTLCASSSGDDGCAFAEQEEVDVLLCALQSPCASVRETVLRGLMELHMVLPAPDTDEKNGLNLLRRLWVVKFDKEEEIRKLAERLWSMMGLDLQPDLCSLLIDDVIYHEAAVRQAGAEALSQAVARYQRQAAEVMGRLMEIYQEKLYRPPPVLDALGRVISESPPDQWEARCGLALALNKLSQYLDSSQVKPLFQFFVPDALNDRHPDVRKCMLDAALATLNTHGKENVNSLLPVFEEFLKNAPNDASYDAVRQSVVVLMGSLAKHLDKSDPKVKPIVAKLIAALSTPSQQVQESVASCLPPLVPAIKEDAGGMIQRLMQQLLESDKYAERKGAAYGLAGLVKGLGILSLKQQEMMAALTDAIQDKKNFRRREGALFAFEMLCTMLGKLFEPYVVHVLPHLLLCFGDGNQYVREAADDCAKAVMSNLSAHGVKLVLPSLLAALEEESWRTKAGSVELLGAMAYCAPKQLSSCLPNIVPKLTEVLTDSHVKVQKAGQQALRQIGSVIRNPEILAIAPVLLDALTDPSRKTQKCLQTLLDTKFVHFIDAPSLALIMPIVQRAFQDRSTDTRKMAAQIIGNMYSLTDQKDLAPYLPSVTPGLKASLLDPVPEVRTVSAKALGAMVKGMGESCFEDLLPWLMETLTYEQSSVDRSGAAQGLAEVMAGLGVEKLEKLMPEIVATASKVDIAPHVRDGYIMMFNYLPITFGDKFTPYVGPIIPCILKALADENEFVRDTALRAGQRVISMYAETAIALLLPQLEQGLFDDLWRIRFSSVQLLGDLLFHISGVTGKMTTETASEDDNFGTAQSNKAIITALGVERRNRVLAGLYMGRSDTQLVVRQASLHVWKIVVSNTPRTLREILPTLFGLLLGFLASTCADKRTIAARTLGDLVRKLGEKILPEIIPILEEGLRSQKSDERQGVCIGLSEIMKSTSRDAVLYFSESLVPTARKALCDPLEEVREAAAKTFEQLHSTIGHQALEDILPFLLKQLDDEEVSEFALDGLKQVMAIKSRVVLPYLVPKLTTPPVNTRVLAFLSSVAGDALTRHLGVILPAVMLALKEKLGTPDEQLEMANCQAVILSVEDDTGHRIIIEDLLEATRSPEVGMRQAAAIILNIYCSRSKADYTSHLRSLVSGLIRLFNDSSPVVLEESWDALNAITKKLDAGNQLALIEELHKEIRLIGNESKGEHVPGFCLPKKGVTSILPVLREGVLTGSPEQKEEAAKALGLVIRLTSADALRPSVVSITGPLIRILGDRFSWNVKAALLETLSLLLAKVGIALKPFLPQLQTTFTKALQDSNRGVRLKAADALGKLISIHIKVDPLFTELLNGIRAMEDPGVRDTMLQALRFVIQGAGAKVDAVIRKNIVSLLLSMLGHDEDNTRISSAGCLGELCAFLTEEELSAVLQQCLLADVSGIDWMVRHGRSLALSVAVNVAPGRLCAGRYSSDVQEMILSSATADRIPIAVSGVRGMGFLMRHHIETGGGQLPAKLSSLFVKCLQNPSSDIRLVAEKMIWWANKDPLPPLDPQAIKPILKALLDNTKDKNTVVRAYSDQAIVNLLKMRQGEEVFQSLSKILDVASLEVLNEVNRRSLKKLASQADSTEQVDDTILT

The target of this test is FLAG-tagged UBR5 (human) (UniProt O95071). Briefly: co-IP; HEK293T transiently transfected with FLAG-tagged UBR5; IP with anti-FLAG beads; Western blot for endogenous partners. Background: Immunoblotting shows a protein as a band on a membrane.
As to “DNA-dependent protein kinase (from UniProt P78527 1-4128)”, the binding entry is recorded as “binds”.

On to GCN1L1 (from UniProt Q92616 1-2671), for which the binding result is “binds”.

Take Raptor (from UniProt Q8N122 1-1335): the binding entry is listed as “binds”.

Values taken from publication PMC7457484.
